These results are taken from US9089539B2 (Indiana University Research and Technology Corporation, priority 2008, dated 2015).

The series can be described thus: solid-phase peptide synthesis. The settings on record: whole synthesis; for final HPLC purity: analytical HPLC, UV 214 nm, C18 Vydac.
Setting [1] is: scale of the general procedure 0.2 mmol (Boc/PAM), 0.1 mmole (Fmoc/Rink).

Consider “HO-PLA-Thr-Ser-Glu-Tyr-Ser-Lys-Tyr-Leu-Asp-Ser-Arg-Arg-Ala-Gln-Asp-Phe-Val-Gln-Trp-Leu-Met-Asn-Thr-NH”, for which, under setting [1], the “final HPLC purity” value came to 95% purity. In addition, the isolated yield (overall, scale of the general procedure 0.2 mmol (Boc/PAM), 0.1 mmole (Fmoc/Rink)) is 10˜15% yield totally. For the setting “scale 0.1 mmole”, the crude mass is 200˜250 mg and the isolated mass was 25˜40 mg.
“H2N-Phe-Thr-Ser-homoCys(SO3H)-Tyr-Ser-Lys-Tyr-Leu-Asp-Ser-Arg-Arg-Ala-Gln-Asp-Phe-Val-Gln-Trp-Leu-Met-Asn-Thr-NH2”: the “final HPLC purity” value under setting [1] turned out to be 95% purity.
